Residue numbers refer to the chain shown, from its start. No constants are given. Whether binding was seen depends on the method and setting. In cells and extracts the contact can be indirect. For some of these results: Binding can be weak; no strength is given. Tags and fused reporters may be left off the sequences shown.
Columns and labels:
Assay in all cases: co-IP; CHO cells coexpressing Kv4.2 constructs and KChIP2; IP with HA-antibody (WB: panKChIP-antibody) and IP with panKChIP-antibody (WB: HA-antibody)
[1] = target: T1, Kv4.2[A14K]^HA (human) (UniProt Q9NZV8)
T1 sequence: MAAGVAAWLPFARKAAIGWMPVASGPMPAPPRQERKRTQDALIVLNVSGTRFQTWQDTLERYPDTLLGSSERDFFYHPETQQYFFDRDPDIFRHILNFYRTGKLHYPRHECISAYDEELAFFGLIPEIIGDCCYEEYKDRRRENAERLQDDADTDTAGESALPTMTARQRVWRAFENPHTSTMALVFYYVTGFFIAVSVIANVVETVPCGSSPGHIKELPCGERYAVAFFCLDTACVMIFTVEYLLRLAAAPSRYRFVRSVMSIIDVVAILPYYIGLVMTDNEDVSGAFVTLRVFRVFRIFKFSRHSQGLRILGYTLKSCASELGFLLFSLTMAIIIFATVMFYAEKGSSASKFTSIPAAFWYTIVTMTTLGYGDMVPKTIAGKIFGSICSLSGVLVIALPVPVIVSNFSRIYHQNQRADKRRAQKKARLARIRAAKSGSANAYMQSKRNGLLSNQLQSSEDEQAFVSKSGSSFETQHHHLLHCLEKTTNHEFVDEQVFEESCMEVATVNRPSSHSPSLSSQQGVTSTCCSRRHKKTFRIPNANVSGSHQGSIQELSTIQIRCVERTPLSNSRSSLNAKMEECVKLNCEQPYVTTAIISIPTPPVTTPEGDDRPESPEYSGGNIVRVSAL

[2] = target: T2, Kv4.2[A14K]^HA,EGFP (human) (UniProt Q9NZV8)
T2 sequence: T1 sequence

[3] = target: T3, Kv4.2[wt]^HA (human) (UniProt Q9NZV8)
T3 sequence: T1 sequence with K14A

[4] = target: T4, Kv4.2[wt]^HA,EGFP (human) (UniProt Q9NZV8)
T4 sequence: T1 sequence with K14A

binding [1]: no binding
binding [2]: no binding
binding [3]: binds
binding [4]: binds
Substance: human Kv channel interacting protein (KChIP) 2b

Reference: publication PMC5792006
